Laboratory results taken from PubChem BioAssay AID1671190 (National Center for Advancing Translational Sciences (NCATS), 2021).
Among all 580,000 compounds or so, about 6,100 (1.1%) were called active. Inconclusive means that the source gave no clear call. Such entries were picked first, then a sample of the others. Calls come from the whole dose curve; as a rule, active = well fitted inhibition curve with a large enough effect; inconclusive = small, poorly fitted or top-dose-only effect, or another doubt; inactive = no such curve, though single readings can be large or run the other way. Potencies of inconclusive entries are doubtful fits and often do not repeat.
% is set by controls: 0 for no effect and ±100 for the full control effect; potency is the fitted concentration of half-maximal effect.

Amino acid sequences for entries named in this document (tags omitted).
UniProt P18054, whole entry, looked up: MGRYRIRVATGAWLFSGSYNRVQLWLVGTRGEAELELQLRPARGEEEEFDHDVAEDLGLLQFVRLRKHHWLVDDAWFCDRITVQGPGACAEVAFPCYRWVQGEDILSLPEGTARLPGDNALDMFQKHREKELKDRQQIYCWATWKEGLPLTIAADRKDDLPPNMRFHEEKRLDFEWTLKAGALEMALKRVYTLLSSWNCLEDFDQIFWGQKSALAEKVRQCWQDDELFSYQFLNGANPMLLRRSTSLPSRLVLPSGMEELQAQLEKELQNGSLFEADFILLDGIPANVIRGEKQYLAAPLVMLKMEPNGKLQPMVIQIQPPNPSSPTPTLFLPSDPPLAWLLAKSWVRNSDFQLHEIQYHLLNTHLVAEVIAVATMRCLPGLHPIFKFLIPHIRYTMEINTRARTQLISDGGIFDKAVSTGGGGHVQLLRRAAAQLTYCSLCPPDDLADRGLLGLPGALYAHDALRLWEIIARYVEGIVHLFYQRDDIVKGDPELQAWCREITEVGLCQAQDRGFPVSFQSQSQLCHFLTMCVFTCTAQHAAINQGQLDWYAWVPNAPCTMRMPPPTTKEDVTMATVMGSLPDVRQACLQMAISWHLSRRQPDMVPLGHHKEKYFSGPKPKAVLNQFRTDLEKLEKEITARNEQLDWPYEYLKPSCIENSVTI

These molecules were tested against Polyunsaturated fatty acid lipoxygenase ALOX12 (Homo sapiens) (UniProt P18054) (assay: Primary qHTS assay for inhibitors of human arachidonate 12S-lipoxygenase (ALOX12): Round 2). Settings: purified 12hLO, xylenol orange hydroperoxide absorbance; activity change, negative = inhibition: at 108 µM (top of the series) unless noted.
Summary of the method: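 Hydroperoxide product was detected by ferrous iron/xylenol orange as the 573 to 405 nm absorbance ratio. Arachidonic acid at 40 uM (final) was turned over for 30 min at room temperature by 150 nM human 12hLO, pH 7.0 Hepes buffer, after 15 min compound preincubation.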
For `Cc1oc2c(c1C(=O)NC1CCCC1)CN(Cc1ccc(F)cc1)CC2`, the Potency was active: 12.6 µM. `O=C(Nc1ccc(Cl)c(-c2nc3cc(Cl)ccc3o2)c1)c1cc2ccccc2o1` was tested, and the Potency was inconclusive: 126 µM [inhibitor, partial curve, poor fit]. With `COc1ccc(C2=C3CCC[C@]4(C)CCO[C@]34C=CC2=O)cc1` the Potency was inconclusive: 56.2 µM [inhibitor, partial curve, poor fit]. For `O=C(NC1CCCc2ccccc21)C1CCN(S(=O)(=O)c2cccc(C(F)(F)F)c2)CC1` (stereo not given), the “activity change, negative = inhibition” value was inactive: -0.552%. For `O=C(Nc1ccc2nc(SCc3cccc4ccccc34)sc2c1)c1ccc(Cl)cc1`, the Potency was active: 28.2 µM. With `CN(CCc1ccccn1)C(=O)CCC1CCCN(C(=O)c2ccsc2)C1` (stereo not given) the Potency was inconclusive: 100 µM [inhibitor, single point]. In the case of `CN(C)c1cccc(C(=O)N2CCC3(CC2)NC(=O)N(c2cccc(Cl)c2)N3)c1`, the Potency is reported as inconclusive: 1 µM [inhibitor, full curve]. `O=c1c(-c2cc(F)cc(F)c2)nc2cnc(N3CCNCC3)nc2n1CCc1ccccc1` was tested, and the Potency was inconclusive: 3.16 µM [inhibitor, single point]. `O=C1/C(=N\S(=O)(=O)c2cccs2)C([n+]2ccccc2)=C([O-])c2ccccc21` was tested, and the “activity change, negative = inhibition” value was inactive: -27%. For `NC(=O)/C(=C/c1ccc(O)cc1)NC(=O)c1ccco1`, the Potency was inconclusive: 35.5 µM [inhibitor, partial curve, poor fit]. For `N#C/C(=C\c1ccc(C(=O)O)cc1)c1nc2sc3c(c2c(=O)[nH]1)CCCC3`, the Potency was inconclusive: 50.1 µM [inhibitor, partial curve, poor fit]. `O=C(CSc1ccccc1)c1c[nH]c2ccccc12` was tested, and the Potency was inconclusive: 56.2 µM [inhibitor, partial curve, poor fit]. For `Cc1ccc(S(=O)(=O)N2CCCC(C(=O)NCc3cccnc3)C2)cc1Cl` (stereo not given), the “activity change, negative = inhibition” value was inactive: -4.79%. For `CC(C)C[C@@H](CN1CCCC1CN1C(=S)NC[C@@H]1Cc1ccc(O)cc1)N1C[C@H](Cc2ccc(O)cc2)N(CC2CCCCCC2)C1=S` (stereo not given in full), the Potency was inconclusive: 15.8 µM [inhibitor, partial curve, poor fit]. With `Cc1cc(NS(=O)(=O)c2ccc(NC(=S)NC(=O)c3ccc(C(C)(C)C)cc3)cc2)no1` the Potency was active: 7.08 µM. In the case of `CCN1CC(CN(C)Cc2cn(-c3ccccc3C)nc2-c2ccc(OC)c(F)c2)CC1=O` (stereo not given), the “activity change, negative = inhibition” value is reported as inactive: 10.1%. For `COC(=O)C1=C(C)N(Cc2ccccc2)C(=S)NC1c1ccc(Br)cc1` (stereo not given), the Potency was inconclusive: 39.8 µM [inhibitor, partial curve, poor fit]. `Cc1ccc(F)cc1-c1nc(NC(C)C)nc2cc(-c3ccccc3)sc12` was tested, and the Potency was inconclusive: 39.8 µM [inhibitor, partial curve, poor fit]. `CCOc1ccc(NC(=O)CN2CCN(C3c4ccccc4-c4ccccc43)CC2)cc1` was tested, and the Potency was inconclusive: 10 µM [inhibitor, partial curve, poor fit]. With `COc1cccc(NC(=O)COC(=O)c2c(NC(C)=O)sc(C)c2C)c1` the “activity change, negative = inhibition” value was inactive: -28.6%. With `CCOc1ccc2nc(N(CCCN(C)C)C(=O)c3ccc(S(=O)(=O)N4CCCC4)cc3)sc2c1` the Potency was inconclusive: 50.1 µM [inhibitor, partial curve, poor fit]. In the case of `CCN1CCN(CC(=O)Nc2ccc(Cl)c(Cl)c2)C(=O)C1=O`, the Potency is reported as inconclusive: 89.1 µM [inhibitor, single point]. For `Cc1c(/C=N/NC(=O)c2cc(C(C)(C)C)[nH]n2)c2ccccc2n1C`, the Potency was inconclusive: 141 µM [inhibitor, single point]. With `O=C(COc1cccnc1[N+](=O)[O-])Nc1cc(Cl)ccc1Cl` the “activity change, negative = inhibition” value was inactive: -26%. For `COc1ccc(Cn2nc(-c3ccccc3)nc2C2CCC(=O)NC2)cc1` (stereo not given), the “activity change, negative = inhibition” value was inactive: 23.4%. In the case of `Cc1c(/C=N/NC(=O)c2ccccc2O)c2ccccn2c1C(=O)c1ccc(F)cc1`, the “activity change, negative = inhibition” value is reported as inactive: -25.7%. With `CC1([N+](=O)[O-])COC(C=Cc2ccccc2)OC1` (stereo not given) the Potency was inconclusive: 50.1 µM [inhibitor, partial curve, poor fit]. For `O=C(CSc1nnc2scc(-c3ccccc3)n12)Nc1nsc(-c2ccccc2)n1`, the Potency was inconclusive: 126 µM [inhibitor, single point]. In the case of `Cc1ccc(C2CCN(C(=O)Nc3ccc(C)c(C)c3)C2)cc1` (stereo not given), the “activity change, negative = inhibition” value is reported as inactive: -23%. With `CCN1CCN(Cc2ccc(NC(=O)c3cc(NC(=O)c4cnn(-c5ccccc5)c4N)cc(OC)c3)cc2C(F)(F)F)CC1` the Potency was inconclusive: 39.8 µM [inhibitor, partial curve, poor fit]. With `O=C(NCc1ccccn1)C1CC(=O)N(C2CCCC2)C1` (stereo not given) the “activity change, negative = inhibition” value was inactive: 4.39% [at 57.4 µM]. `O=C1CCCN1CCCN1C(=O)[C@@H]2C[C@@H](O)CN2C2(CN(Cc3ccc(F)cc3)C2)C1=O` was tested, and the Potency was inconclusive: 15.8 µM [inhibitor, full curve, poor fit]. `Cc1cc(C)c(S(=O)(=O)NCCc2csc3nc(-c4ccc(Cl)cc4)nn23)c(C)c1` was tested, and the Potency was inconclusive: 50.1 µM [inhibitor, partial curve, poor fit]. `COc1ccccc1-n1cnc2cc(C(=O)NC3CC(C)(C)NC(C)(C)C3)ccc2c1=O` was tested, and the “activity change, negative = inhibition” value was inactive: 4.65%. For `CC(=O)C1=C(C)N(Cc2ccccc2)C(=S)NC1c1cccc(Br)c1` (stereo not given), the Potency was active: 44.7 µM. With `Cc1ccc(N2CC(C)Cn3c2nc2c3c(=O)n(CC(=O)OCc3ccccc3)c(=O)n2C)cc1C` (stereo not given) the “activity change, negative = inhibition” value was inactive: -15.9%. In the case of `CC(c1ccccc1)C1C(C#N)=C(N)OC2=C1C(=O)CCC2` (stereo not given), the “activity change, negative = inhibition” value is reported as inactive: 0%. In the case of `CC(C)C[C@H](NC(=O)[C@@H]1Cc2c([nH]c3ccccc23)C2c3ccccc3C(=O)N21)C(=O)N1CCC[C@@H]1C(=O)O` (stereo not given in full), the Potency is reported as inconclusive: 35.5 µM [inhibitor, partial curve, poor fit]. In the case of `Cc1ccn2c(Cc3ccccc3)c(-c3ccc(F)cc3)nc2c1`, the Potency is reported as inconclusive: 44.7 µM [inhibitor, partial curve, poor fit]. `O=C(COc1ccc(C2SCCCS2)cc1)Nc1ccc(F)cc1` was tested, and the “activity change, negative = inhibition” value was inactive: -5.11%. For `CCCc1nc2c3ccccc3ccn2c1CC1CCCCC1`, the Potency was inconclusive: 44.7 µM [inhibitor, partial curve, poor fit]. For `O=C(CSc1nnc(NC(=O)c2ccccc2F)s1)NCC1CCCO1` (stereo not given), the Potency was inconclusive: 35.5 µM [inhibitor, partial curve]. For `O=C1NCCCCC1NC1CC(=O)N(c2ccccc2)C1=O` (stereo not given), the Potency was inconclusive: 5.62 µM [inhibitor, partial curve, poor fit]. For `CNC(=O)NC[C@H]1CCN(Cc2ccccc2C#N)C[C@H]1N(C)C`, the “activity change, negative = inhibition” value was inactive: 52.3%. In the case of `COC(=O)COc1ccc2c(C)c(C)c(=O)oc2c1C`, the “activity change, negative = inhibition” value is reported as inactive: 14.9%. With `COc1ccc2c3c([nH]c2c1)[C@H](CO)N(C(=O)C1CCC1)CC31CCN(C(=O)c2ccncc2)CC1` the Potency was inconclusive: 50.1 µM [inhibitor, partial curve, poor fit]. For `C[N+](C)(CCCCC(=O)O)C[Si](C)(C)C`, the Potency was inconclusive: 35.5 µM [inhibitor, partial curve, poor fit]. In the case of `CC(=O)N(C)c1ccc(N=Nc2c(C)[nH]n(C(N)=S)c2=O)cc1`, the Potency is reported as inconclusive: 44.7 µM [inhibitor, partial curve, poor fit]. For `Cc1cccc(C(=O)NNC(=S)NC(=O)c2cccs2)c1`, the Potency was inconclusive: 39.8 µM [inhibitor, single point]. In the case of `Cc1cc(S(=O)(=O)N2CCCC2)ccc1OCC(=O)NCc1ccccn1`, the Potency is reported as inconclusive: 2.24 µM [inhibitor, full curve, poor fit]. `C=CCc1cc(/C=C/c2nc(O)c([N+](=O)[O-])c(=O)[nH]2)cc(OC)c1O` was tested, and the Potency was active: 39.8 µM. In the case of `CCC(C)c1ccc(NC(=O)c2ccc(SC)cc2OC)cc1` (stereo not given), the “activity change, negative = inhibition” value is reported as inactive: -2.25%. In the case of `CC(C)(C)N1CC(C(=O)O)CC1=O` (stereo not given), the Potency is reported as inconclusive: 50.1 µM [inhibitor, partial curve, poor fit]. For `CCCCN(CCCC)C(=O)c1cc(Cl)ccc1[N+](=O)[O-]`, the “activity change, negative = inhibition” value was inactive: -1.57%. For `COc1cc2[nH]c(=O)n(Cc3ccc(C(=O)NC4CCN(Cc5ccccc5)CC4)cc3)c(=O)c2cc1OC`, the Potency was inconclusive: 39.8 µM [inhibitor, partial curve, poor fit]. In the case of `C[C@H](CO)N1C[C@H](C)[C@@H](CN(C)S(=O)(=O)c2cccs2)Oc2ccc(NC(=O)NC3CCCCC3)cc2C1=O`, the Potency is reported as inconclusive: 112 µM [inhibitor, single point]. `O=C(/C=C/c1ccco1)Nc1cccnc1Cl` was tested, and the “activity change, negative = inhibition” value was inactive: 0%. `O=C(CN(Cc1ccccc1)C1=NCCS1)c1ccc(Cl)cc1` was tested, and the Potency was inconclusive: 28.2 µM [inhibitor, partial curve, poor fit]. For `CC(=O)Oc1cc(OC(C)=O)c2c(C)c(CC(=O)NCc3ccccc3)c(=O)oc2c1`, the “activity change, negative = inhibition” value was inactive: -5.4%. `O=C(Cc1cccs1)N1CC(c2noc(C3CCCN3CC3CC3)n2)C1` (stereo not given) was tested, and the “activity change, negative = inhibition” value was inactive: 49.1%. In the case of `CCCCNC(=O)c1c(CSc2ccc(Cl)cc2)noc1C(=O)NCc1ccccc1`, the Potency is reported as inconclusive: 112 µM [inhibitor, single point]. `CCSc1nn(CC(=O)Nc2cccc(Cl)c2)c(N)c1S(=O)(=O)c1ccc(OC)cc1` was tested, and the Potency was inconclusive: 178 µM [inhibitor, single point]. With `COc1ccc(-c2sc3ccccc3c2-c2ccc(O)cc2)cc1` the Potency was inconclusive: 70.8 µM [inhibitor, partial curve, poor fit]. In the case of `COc1ccc(C(=O)C2CCN(C(=O)c3ccc(F)cc3)CC2)cc1`, the Potency is reported as inconclusive: 3.16 µM [inhibitor, full curve, poor fit]. With `O=C(OCc1ccccc1)N1Cc2ccnnc2CC1c1ccccc1Br` (stereo not given) the Potency was inconclusive: 100 µM [inhibitor, single point].
